# Source: PubChem BioAssay AID651640 (Broad Institute, 2012)
# About 6,000 (1.7%) of roughly 350,000 compounds were called active. Inconclusive means that the source gave no clear call. Such entries were picked first, then a sample of the others. Cut-off read from the data, not from the text of the source: active = CPE inhibition above about 20% (passing the limit was not always enough); inconclusive = no clear call, values can overlap the other calls; tested in BHK-21 cells.
# Assay: protection of cells from dengue 2 killing – plate reader, single concentration, primary screen (AID 651640);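 note: 0% = median of neutral control wells and 100% = median of positive control wells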
# Settings: DENV2-infected cells, cytopathic effect rescue, at 9.99 µM, active compounds read high
row,SMILES,CPE inhibition
1,COCC(=O)N1CCC2(CC1)CN(C(=O)Nc1ccccc1F)[C@H](CO)c1[nH]c3cc(OC)ccc3c12,active: 25%
2,Cc1ccc2c(CN3CCC(C(N)=O)CC3)cc(=O)oc2c1C,inconclusive: 28.3%
3,C[C@H](CO)N1C[C@H](C)[C@H](CN(C)Cc2ccc(Oc3ccccc3)cc2)Oc2ccc(NC(=O)CCC(F)(F)F)cc2C1=O,inconclusive: 20.1%
4,CCN(CC)S(=O)(=O)c1ccc(OC)c(NC(=O)Cn2cnc3c2c(=O)n(C)c(=O)n3C)c1,inconclusive: 21.2%
5,O=C(O)c1ccc(-c2noc(-c3ccccc3Cl)n2)cc1,inactive: 3.01%
6,C[C@@H]1CN([C@H](C)CO)C(=O)Cc2cc(NC(=O)CCCCCC(=O)Nc3ccccc3N)ccc2O[C@H]1CN(C)Cc1ccc(-c2ccccc2)cc1,inconclusive: 32.1%
7,N#C[C@@H]1N[C@@H](CO)[C@@H]1c1ccc(C#Cc2ccc(F)cc2)cc1,inconclusive: 54%
8,C[C@H](CO)N1C[C@H](C)[C@H](CN(C)C(=O)NC2CCCCC2)Oc2c(NC(=O)c3nc4ccccc4s3)cccc2C1=O,inconclusive: 26.8%
9,C[C@@H]1CN([C@H](C)CO)C(=O)Cc2cc(NC(=O)Nc3ccc4c(c3)OCO4)ccc2O[C@H]1CN(C)C(=O)Nc1ccccc1,inactive: -9.52%
10,O=C(NCc1cccnc1)c1cccc(OC2CCN(Cc3ccc(CO)o3)CC2)c1,inconclusive: 20.3%
11,CCOC(=O)C1(C)CCCN(C(=O)c2ccc(OC)c(OC)c2)C1 (stereo not given),inconclusive: 22.6%
12,CNC[C@H]1Oc2c(NC(=O)Nc3ccc(F)cc3)cccc2C(=O)N([C@H](C)CO)C[C@H]1C,inconclusive: 36.4%
13,CC1CC(=O)N(c2ccc(NCc3ccc(Cl)cc3)c([N+](=O)[O-])c2)C1=O (stereo not given),inconclusive: 20.3%
14,CC(=O)N[C@@H](CS)C(=O)O,inconclusive: 31.8%
15,CC(C)CC1(C)N=C(c2ccccc2)C(=S)N1 (stereo not given),inactive: -4.64%
16,C[C@H](CO)N1C[C@H](C)[C@H](CN(C)S(C)(=O)=O)OCCCC[C@H](C)Oc2ccc(NC(=O)Cc3ccccc3)cc2C1=O,inactive: -2.5%
17,CO[C@H]1CN(C)C(=O)c2ccc(NS(C)(=O)=O)cc2OC[C@@H](C)N(C)C[C@@H]1C,inconclusive: 31.9%
18,Cc1ccc(C(=O)C2CCN(S(=O)(=O)c3ccccc3C(=O)O)CC2)cc1,inconclusive: 22.9%
19,C[C@@H]1CN([C@H](C)CO)C(=O)c2cc(-c3ccccc3F)cnc2O[C@H]1CN(C)C,inconclusive: 25.6%
20,COc1ccc(S(=O)(=O)Nc2cccc3c2O[C@H](CN(C)Cc2ccc4c(c2)OCO4)[C@H](C)CN([C@H](C)CO)C3=O)cc1,inconclusive: 48.6%

# Reformatted as tab-separated lines: entries from further up
row	SMILES	CPE inhibition
6	C[C@@H]1CN([C@H](C)CO)C(=O)Cc2cc(NC(=O)CCCCCC(=O)Nc3ccccc3N)ccc2O[C@H]1CN(C)Cc1ccc(-c2ccccc2)cc1	inconclusive: 32.1%
7	N#C[C@@H]1N[C@@H](CO)[C@@H]1c1ccc(C#Cc2ccc(F)cc2)cc1	inconclusive: 54%
